A short description of the series: general procedure: Fmoc solid-phase peptide synthesis; TentaGel S RAM (0.25 mmol/g); TentaGel RAM (0.18 mmol/g); TBTU or HATU with NMM; HBTU/HOBt with DIPEA. To be noted: conjugation step.

Strings that start with PEPTIDE1 are HELM notation: dots part the residues, brackets hold end groups and non-standard residues.

Substance “PEG2-IK(PEG3-Cys-4Abu-Dig)-Pqa-RHYLNWVTRQ-MeArg-Y-NH2” showed a conjugation yield of 25%.

“PEPTIDE1{[ac].I.K.[Pqa].R.H.Y.L.N.W.V.T.R.Q.[NMeArg].Y.[am]}|PEPTIDE2{[Dig3cme].[PEG3]}$PEPTIDE1,PEPTIDE2,3:R3-2:R2$$$V2.0”: the conjugation yield was found to be 25%.

The values above are taken from patent publication US10806795B2 (Hoffmann-La Roche Inc., priority 2014, dated 2020).
